# Assay results as given in PMC10564737, “Structure-based design of a phosphotyrosine-masked covalent ligand targeting the E3 ligase SOCS2” (Nature Communications, 2023).
# By UniProt entry, the sequences of proteins in these tests, tags left out. Residues count along the entry.
# UniProt O14508, 32-198: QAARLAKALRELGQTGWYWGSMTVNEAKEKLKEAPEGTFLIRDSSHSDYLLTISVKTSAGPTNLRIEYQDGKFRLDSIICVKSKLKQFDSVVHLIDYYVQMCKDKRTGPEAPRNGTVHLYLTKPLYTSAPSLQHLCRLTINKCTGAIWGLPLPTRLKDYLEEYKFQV
# Several values for one entry are separate records, joined by “and”; a condition that tells them apart may be missing. Equal values may be shown once. Further values from the same series stand in other lists.
# Target: T1, SBC2 (Homo sapiens, UniProt O14508)
# T1 construct: SOCS2 (amino acids 32–198); His6 (N, cleaved yes); made in house; host or cells: E. coli BL21(DE3)
# Experiment: Covalent fluorescence polarization (FP) probe displacement assay
# Format: binding
# Description: With the specific covalent modification of Cys111 established, we decided to fully characterize MN551 as a covalent SOCS2 inhibitor. […] (Fig. 2g, h, Supplementary Fig. 9). Due to the covalent nature of the competing inhibitor, a time-dependent reduction in the fraction of protein-bound probe is observed. […] This value illustrates reasonable specificity for a covalent inhibitor, with nonetheless scope for future optimization. In addition to characterizing the kinetic covalency parameters, we have also assessed the stability of the MN551 by monitoring its reactivity (half-life >70 min) with reduced glutathione (GSH) (Supplementary Fig. 10)[35].
# To monitor the SBC2-ligand binding kinetics we designed a fluorescein-labeled small-molecule probe - compound 26. The fluorescence polarization (anisotropy) of a threefold serial dilution of 50 µM SBC2 in 10 nM of the probe in 100 mM HEPES pH 7.5, 50 mM NaCl, 0.5 mM TCEP, 2% DMSO was measured to determine the KL (Supplementary Fig. 9A) (BMG Labtech PHERAstar – firmware v1.33). Protein titration and the curves were fitted using GraphPad Prism 9, using one-site fitting models to determine the probe binding constant, KL. Samples were run in triplicate in 384 well plates, using a total volume per well of 16 μL. The bound fraction of the probe is measure using the equation:1 Fb=Af−A/Af−Ab Where,
# A time-dependent reduction in probe anisotropy were measured for a 2-fold serial dilution of […] compound MN551 in 10 nM probe +300 μM SBC2. To determine the initial reversible binding affinity, the initial bound fraction of the probe at time = 0, Fbo (the y-intercept in Fb v/s Time plot, Supplementary Fig. 9B) was plotted against MN551 concentration, and the obtained IC50 is then converted to Ki (Supplementary Fig. 9C)[17]. The slope from Fb versus time graph when divided by Fbo gives rate of covalency, kobs. A plot of kobs v/s MN551 concentration using Michaelis–Menten model of GraphPad Prism 9, provides the parameters kinact (maximum potential rate of inactivation) and KI (concentration of MN551 at which kobs = kinact/2) (Supplementary Fig. 9D, E).
# The observed first-order rate constant, kobs is related to KI and kinact by the equation:2 kobs=kinactI/KI+I
# At [I]«[KI] the above equation is converted to3 […]
# The slope from the plot of kobs against concentration of MN551 gives us the covalent efficiency parameter kinact/KI (Supp Fig. 9F)[30],[33].
# [1] = MN551 390.625 nM; Cycle 10 (45 min)
# [2] = MN551 390.625 nM; Cycle 11 (50 min)
# [3] = MN551 390.625 nM; Cycle 12 (55 min); n=1
# [4] = MN551 390.625 nM; Cycle 13 (60 min); n=1
# [5] = MN551 390.625 nM; Cycle 14 (65 min); n=1
# [6] = MN551 390.625 nM; Cycle 15 (70 min); n=1
# [7] = MN551 390.625 nM; Cycle 16 (75 min); n=1
# [8] = MN551 510.204 nM, Cycle 9 (40 min)
# [9] = MN551 510.204 nM, Cycle 10 (45 min)
# [10] = MN551 510.204 nM, Cycle 11 (50 min)
# [11] = MN551 510.204 nM, Cycle 12 (55 min)
# [12] = MN551 510.204 nM, Cycle 16 (75 min), n=1
# [13] = MN551 510.204 nM, Cycle 17 (80 min), n=1
# [14] = MN551 510.204 nM, Cycle 18 (85 min), n=1
# [15] = MN551 510.204 nM; Cycle 7 (30 min)
# [16] = MN551 510.204 nM; Cycle 8 (35 min)
# [17] = MN551 510.204 nM; Cycle 9 (40 min)
# [18] = MN551 510.204 nM; Cycle 10 (45 min)
# [19] = MN551 510.204 nM; Cycle 11 (50 min)
# [20] = MN551 510.204 nM; Cycle 13 (60 min); n=1
# [21] = MN551 510.204 nM; Cycle 14 (65 min); n=1
# [22] = MN551 510.204 nM; Cycle 15 (70 min); n=1
# [23] = MN551 510.204 nM; Cycle 16 (75 min); n=1
# [24] = MN551 714.286 nM, Cycle 9 (40 min)
# [25] = MN551 714.286 nM, Cycle 10 (45 min)
# [26] = MN551 714.286 nM, Cycle 11 (50 min)
# [27] = MN551 714.286 nM, Cycle 12 (55 min)
# [28] = MN551 714.286 nM, Cycle 16 (75 min), n=1
structure (smiles),measurement,setting,value
O=C(CCl)Nc1cccc(CNC(=O)[C@H](Cc2ccc(OP(=O)(O)O)cc2)NC(=O)Cc2ccc(F)cc2)c1 [MN551],"Anisotropy data 485,520,520",[1],263.5 and 265.1 and 266.6
same,Fb,[1],0.905 and 0.879 and 0.9076 and 0.9319 and 0.9386 and 0.9079
same,Anisotropy,[2],269.9 and 268.6 and 268.1
same,Anisotropy based on Raw Data (485),[2],265.4 and 265.8 and 263
same,Anisotropy,MN551 390.625 nM; Cycle 11 (50 min); n=1,262.1 and 264.5 and 265.6
same,Anisotropy,[3],260.1 and 263.6 and 262.7
same,Anisotropy based on Raw Data (485),[3],263.7 and 265.1 and 261
same,Anisotropy,[4],258 and 259.6 and 261
same,Anisotropy based on Raw Data (485),[4],264.5 and 264.8 and 259.7
same,Anisotropy,[5],258.3 and 259.8 and 260.3
same,Anisotropy based on Raw Data (485),[5],262.2 and 262.6 and 258.4
same,Anisotropy,[6],255.8 and 259.1 and 259
same,Anisotropy based on Raw Data (485),[6],262.5 and 263.5 and 259.2
same,Anisotropy,[7],253.8 and 257.7 and 259.4
same,Anisotropy based on Raw Data (485),[7],257.7 and 260.6 and 257.1
same,"Anisotropy data 485,520,520",MN551 390.625 nM; Cycle 19 (90 min); n=1,261.1 and 258.8 and 256.5
same,"Anisotropy data 485,520,520",MN551 390.625 nM; Cycle 20 (95 min); n=1,261.4 and 255.6 and 254.3
same,Fb,"MN551 510.204 nM, Cycle 7 (30 min)",0.7463 and 0.6925 and 0.7158
same,Fb,"MN551 510.204 nM, Cycle 8 (35 min)",0.7249 and 0.6952 and 0.6739
same,Anisotropy based on Raw Data (485),[8],256.8 and 258 and 257.8
same,Fb,[8],0.7241 and 0.6954 and 0.7141
same,Anisotropy based on Raw Data (485),[9],254.9 and 257.7 and 252.7
same,Fb,[9],0.716 and 0.6966 and 0.6867
same,Anisotropy based on Raw Data (485),[10],254.8 and 254 and 255.7
same,Fb,[10],0.7278 and 0.6612 and 0.6951
same,Anisotropy based on Raw Data (485),[11],255.9 and 253.8 and 252.4
same,Fb,[11],0.7081 and 0.6991 and 0.6807
same,Anisotropy,"MN551 510.204 nM, Cycle 13 (60 min), n=1",251.3 and 248.3 and 246.9
same,Anisotropy,"MN551 510.204 nM, Cycle 14 (65 min), n=1",250.8 and 244.9 and 242.7
same,Anisotropy,"MN551 510.204 nM, Cycle 15 (70 min), n=1",246.8 and 244.6 and 243.1
same,Anisotropy,[12],246.5 and 244.2 and 242.3
same,"Normalised anisotropy (0 nM MN551 = 1, free probe = 0)",[12],0.7262 and 0.7224 and 0.7017
same,Anisotropy,[13],246.9 and 242.9 and 241
same,Anisotropy based on Raw Data (485),[13],246.6 and 246.2 and 247.2
same,"Normalised anisotropy (0 nM MN551 = 1, free probe = 0)",[13],0.751 and 0.7024 and 0.7119
same,Anisotropy,[14],247.1 and 243.6 and 237.9
same,"Normalised anisotropy (0 nM MN551 = 1, free probe = 0)",[14],0.7619 and 0.7261 and 0.7035
same,"Fb, fraction bound",MN551 510.204 nM; Cycle 4 (15 min),0.8736 and 0.82 and 0.8311
same,"Fb, fraction bound",MN551 510.204 nM; Cycle 5 (20 min),0.8341 and 0.8069 and 0.8095
same,"Fb, fraction bound",MN551 510.204 nM; Cycle 6 (25 min),0.8367 and 0.8061 and 0.8027
same,"Anisotropy data 485,520,520",[15],255.4 and 245.7 and 247.4
same,Fb,[15],0.838 and 0.8444 and 0.9203
same,"Fb, fraction bound",[15],0.7996 and 0.8155 and 0.7886
same,Anisotropy,[16],256.6 and 255.7 and 255.9
same,"Anisotropy data 485,520,520",[16],253.6 and 245.4 and 243.7
same,Fb,[16],0.8335 and 0.8468 and 0.9136 and 0.8068 and 0.7778 and 0.8082
same,Anisotropy,[17],258.4 and 254 and 252.7
same,"Anisotropy data 485,520,520",[17],253.4 and 244.2 and 247.6
same,Fb,[17],0.7979 and 0.8532 and 0.8993 and 0.8314 and 0.7564 and 0.7735
same,Anisotropy,[18],256.9 and 253.8 and 250
same,"Anisotropy data 485,520,520",[18],249.6 and 242.3 and 242.1
same,Fb,[18],0.8044 and 0.8467 and 0.8698 and 0.8151 and 0.7692 and 0.7545
same,Anisotropy,[19],255.5 and 253.1 and 250.3
same,"Anisotropy data 485,520,520",[19],250.5 and 240.1 and 242.6
same,Fb,[19],0.8082 and 0.775 and 0.7752
same,Fb,MN551 510.204 nM; Cycle 11 (50 min); column head blank in this cycle,0.7968 and 0.8263 and 0.8866
same,Anisotropy,MN551 510.204 nM; Cycle 12 (55 min); n=1,249.1 and 240.9 and 240.8
same,Anisotropy,[20],246.3 and 236.8 and 237.8
same,Anisotropy based on Raw Data (485),[20],254.5 and 252.9 and 250.3
same,Anisotropy,[21],246.5 and 235.8 and 237.4
same,Anisotropy based on Raw Data (485),[21],251.6 and 252.6 and 251.7
same,Anisotropy,[22],243.9 and 236.5
same,Anisotropy based on Raw Data (485),[22],250.1 and 250.2 and 248
same,Anisotropy,[23],241.7 and 234 and 234.3
same,Anisotropy based on Raw Data (485),[23],248.2 and 249.2 and 247.7
same,"Anisotropy data 485,520,520",MN551 510.204 nM; Cycle 20 (95 min); n=1,240.4 and 239.6 and 236.2
same,Fb,"MN551 714.286 nM, Cycle 7 (30 min)",0.6941 and 0.6597 and 0.6875
same,Fb,"MN551 714.286 nM, Cycle 8 (35 min)",0.6778 and 0.6721 and 0.6457
same,Anisotropy based on Raw Data (485),[24],253.4 and 252.2
same,Fb,[24],0.667 and 0.6654 and 0.6493
same,Anisotropy based on Raw Data (485),[25],253.2 and 249.3 and 253.1
same,Fb,[25],0.671 and 0.6826 and 0.6416
same,Anisotropy based on Raw Data (485),[26],250.4 and 249.7 and 250.7
same,Fb,[26],0.6343 and 0.6359 and 0.6515
same,Anisotropy based on Raw Data (485),[27],249.3 and 247.1 and 246.3
same,Fb,[27],0.6301 and 0.6279 and 0.6205
same,Anisotropy,"MN551 714.286 nM, Cycle 14 (65 min), n=1",244.8 and 239 and 238.9
same,Anisotropy,"MN551 714.286 nM, Cycle 15 (70 min), n=1",240.2 and 239.9 and 237.6
same,Anisotropy,[28],240.2 and 237.5 and 235.3
same,"Normalised anisotropy (0 nM MN551 = 1, free probe = 0)",[28],0.6667 and 0.6576 and 0.6348
